A short description of series [1]: Water solubility measured in the current study. The format is physicochemical.
Series [2] is described as follows: Saturation solubility in 50% FBS/PBS. In kind it is physicochemical.

Converted amounts (≈) assume the structure as drawn.

This passage reports solubility results from publication PMC7096246 (Journal of pharmaceutical sciences, 2020).

Take `CC(=O)O[C@H]1C(=O)[C@@]2(C)[C@H]([C@H](OC(=O)c3ccccc3)[C@]3(O)C[C@H](OC(=O)[C@H](O)[C@@H](NC(=O)c4ccccc4)c4ccccc4)C(C)=C1C3(C)C)[C@]1(OC(C)=O)CO[C@@H]1C[C@@H]2O` [PTX, paclitaxel]: the solubility – broadly, how much of the substance goes into solution per volume – at 24 h in series [1] stood at 3.3 ± 0.3 µg/mL (≈ 3.86 µM); in series [2], 41.2 ± 3.9 µg/mL (≈ 48.2 µM).
